Reference: PubChem BioAssay AID1508597 (Cure First, 2020)
In all, the deposit lists about 2,100 reagents; below is a random part of them. 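Calls flag viability under 80% in either arm, not effects specific to rucaparib; the reference for percent is not stated.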 A number with no mark means an inactive call. Not given: the 100% reference.

Assay: 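Genes whose silencing sensitises or protects ovarian cancer cells against rucaparib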 (primary screen)
Cell system: human ovarian carcinoma lines grown from tumours: OCI-P5x (papillary serous) and OCI-C5x (clear cell)
Reagents: siRNA pool against human genes, 1.25 pmol siRNA per well
Time to read-out: 72 h or 96 h, depending on the cell culture
Challenge: rucaparib 20 µM (about IC30) or vehicle, present until read-out
Read-out: 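Luminescent ATP-based viability assay read 72 or 96 h after transfection, depending on culture, given as normalised percent viability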
Direction: viability, normalised: higher = more viable cells remaining
Hit rule: 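Active when normalised viability falls below 80 percent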
Meaning of the calls: active = viability under 80%; inactive = viability 80% or more

Target gene	rucaparib or vehicle	cell line	technical replicate	viability, normalised (%)
PCSK9	Rucaparib	OCI-C5x (clear cell)	1	29.4 (active)
PCSK9	Rucaparib	OCI-C5x (clear cell)	2	32.5 (active)
PCSK9	Rucaparib	OCI-C5x (clear cell)	3	39.9 (active)
PCSK9	Rucaparib	OCI-P5x (serous)	1	56.9 (active)
PCSK9	Rucaparib	OCI-P5x (serous)	2	59.4 (active)
PCSK9	Rucaparib	OCI-P5x (serous)	3	55.6 (active)
PCSK9	Vehicle	OCI-C5x (clear cell)	1	37.2 (active)
PCSK9	Vehicle	OCI-C5x (clear cell)	2	32.2 (active)
PCSK9	Vehicle	OCI-C5x (clear cell)	3	36.7 (active)
PCSK9	Vehicle	OCI-P5x (serous)	1	64 (active)
PCSK9	Vehicle	OCI-P5x (serous)	2	68.6 (active)
PCSK9	Vehicle	OCI-P5x (serous)	3	150
PYGO2	Rucaparib	OCI-C5x (clear cell)	1	54.9 (active)
PYGO2	Rucaparib	OCI-C5x (clear cell)	2	51.2 (active)
PYGO2	Rucaparib	OCI-C5x (clear cell)	3	57.1 (active)
PYGO2	Rucaparib	OCI-P5x (serous)	1	36.1 (active)
PYGO2	Rucaparib	OCI-P5x (serous)	2	39.4 (active)
PYGO2	Rucaparib	OCI-P5x (serous)	3	38 (active)
PYGO2	Vehicle	OCI-C5x (clear cell)	1	57.1 (active)
PYGO2	Vehicle	OCI-C5x (clear cell)	2	58.8 (active)
PYGO2	Vehicle	OCI-C5x (clear cell)	3	57 (active)
PYGO2	Vehicle	OCI-P5x (serous)	1	46.8 (active)
PYGO2	Vehicle	OCI-P5x (serous)	2	42 (active)
PYGO2	Vehicle	OCI-P5x (serous)	3	65.6 (active)
EME1	Rucaparib	OCI-C5x (clear cell)	1	58.2 (active)
EME1	Rucaparib	OCI-C5x (clear cell)	2	48.8 (active)
EME1	Rucaparib	OCI-C5x (clear cell)	3	62.6 (active)
EME1	Rucaparib	OCI-P5x (serous)	1	106
EME1	Rucaparib	OCI-P5x (serous)	2	110
EME1	Rucaparib	OCI-P5x (serous)	3	94.7
EME1	Vehicle	OCI-C5x (clear cell)	1	48.1 (active)
EME1	Vehicle	OCI-C5x (clear cell)	2	53.4 (active)
EME1	Vehicle	OCI-C5x (clear cell)	3	60.8 (active)
EME1	Vehicle	OCI-P5x (serous)	1	101
EME1	Vehicle	OCI-P5x (serous)	2	61.1 (active)
EME1	Vehicle	OCI-P5x (serous)	3	85.1

Already shown: an excerpt of the list.
Target gene	rucaparib or vehicle	cell line	technical replicate	viability, normalised (%)
PYGO2	Rucaparib	OCI-C5x (clear cell)	3	57.1 (active)
PYGO2	Rucaparib	OCI-P5x (serous)	1	36.1 (active)
PYGO2	Rucaparib	OCI-P5x (serous)	2	39.4 (active)
PYGO2	Rucaparib	OCI-P5x (serous)	3	38 (active)
PYGO2	Vehicle	OCI-C5x (clear cell)	1	57.1 (active)

Further records:
Target gene	rucaparib or vehicle	cell line	technical replicate	viability, normalised (%)
ENPP2	Rucaparib	OCI-C5x (clear cell)	1	62.7 (active)
ENPP2	Rucaparib	OCI-C5x (clear cell)	2	60.6 (active)
ENPP2	Rucaparib	OCI-C5x (clear cell)	3	51.9 (active)
ENPP2	Rucaparib	OCI-P5x (serous)	1	56.7 (active)
ENPP2	Rucaparib	OCI-P5x (serous)	2	62.9 (active)
ENPP2	Rucaparib	OCI-P5x (serous)	3	69.3 (active)
ENPP2	Vehicle	OCI-C5x (clear cell)	1	66.7 (active)
ENPP2	Vehicle	OCI-C5x (clear cell)	2	60.8 (active)
ENPP2	Vehicle	OCI-C5x (clear cell)	3	64.6 (active)
ENPP2	Vehicle	OCI-P5x (serous)	1	64.2 (active)
ENPP2	Vehicle	OCI-P5x (serous)	2	71.9 (active)
ENPP2	Vehicle	OCI-P5x (serous)	3	66.8 (active)
AGRN	Rucaparib	OCI-C5x (clear cell)	1	45.3 (active)
AGRN	Rucaparib	OCI-C5x (clear cell)	2	42.7 (active)
AGRN	Rucaparib	OCI-C5x (clear cell)	3	50 (active)
AGRN	Rucaparib	OCI-P5x (serous)	1	57.8 (active)
AGRN	Rucaparib	OCI-P5x (serous)	2	61.6 (active)
AGRN	Rucaparib	OCI-P5x (serous)	3	64.7 (active)
AGRN	Vehicle	OCI-C5x (clear cell)	1	37.4 (active)
AGRN	Vehicle	OCI-C5x (clear cell)	2	49.2 (active)
AGRN	Vehicle	OCI-C5x (clear cell)	3	53.1 (active)
AGRN	Vehicle	OCI-P5x (serous)	1	52.9 (active)
AGRN	Vehicle	OCI-P5x (serous)	2	53.7 (active)
AGRN	Vehicle	OCI-P5x (serous)	3	59.5 (active)
